Source: the supplement of paper PMC6411743
± gives the standard deviation of the averaged measurements. Only a part is listed here, and it is no random draw.

Amino acid sequences for entries named in this document (tags omitted). A change or cut given only in a name is not applied to a line headed by its entry.
UniProt Q70IA6: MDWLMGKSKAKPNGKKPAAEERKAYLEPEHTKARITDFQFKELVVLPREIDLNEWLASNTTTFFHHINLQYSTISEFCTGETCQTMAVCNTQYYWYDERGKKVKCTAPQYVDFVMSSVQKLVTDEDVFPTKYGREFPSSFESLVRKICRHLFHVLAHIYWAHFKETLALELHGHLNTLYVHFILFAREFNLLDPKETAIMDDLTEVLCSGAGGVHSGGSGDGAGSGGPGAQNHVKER
UniProt Q8N5I9: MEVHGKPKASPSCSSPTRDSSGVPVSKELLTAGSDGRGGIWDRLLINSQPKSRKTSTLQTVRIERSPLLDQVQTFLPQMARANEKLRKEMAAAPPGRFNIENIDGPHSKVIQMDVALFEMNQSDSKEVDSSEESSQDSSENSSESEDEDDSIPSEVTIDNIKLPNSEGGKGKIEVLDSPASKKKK
UniProt Q00610: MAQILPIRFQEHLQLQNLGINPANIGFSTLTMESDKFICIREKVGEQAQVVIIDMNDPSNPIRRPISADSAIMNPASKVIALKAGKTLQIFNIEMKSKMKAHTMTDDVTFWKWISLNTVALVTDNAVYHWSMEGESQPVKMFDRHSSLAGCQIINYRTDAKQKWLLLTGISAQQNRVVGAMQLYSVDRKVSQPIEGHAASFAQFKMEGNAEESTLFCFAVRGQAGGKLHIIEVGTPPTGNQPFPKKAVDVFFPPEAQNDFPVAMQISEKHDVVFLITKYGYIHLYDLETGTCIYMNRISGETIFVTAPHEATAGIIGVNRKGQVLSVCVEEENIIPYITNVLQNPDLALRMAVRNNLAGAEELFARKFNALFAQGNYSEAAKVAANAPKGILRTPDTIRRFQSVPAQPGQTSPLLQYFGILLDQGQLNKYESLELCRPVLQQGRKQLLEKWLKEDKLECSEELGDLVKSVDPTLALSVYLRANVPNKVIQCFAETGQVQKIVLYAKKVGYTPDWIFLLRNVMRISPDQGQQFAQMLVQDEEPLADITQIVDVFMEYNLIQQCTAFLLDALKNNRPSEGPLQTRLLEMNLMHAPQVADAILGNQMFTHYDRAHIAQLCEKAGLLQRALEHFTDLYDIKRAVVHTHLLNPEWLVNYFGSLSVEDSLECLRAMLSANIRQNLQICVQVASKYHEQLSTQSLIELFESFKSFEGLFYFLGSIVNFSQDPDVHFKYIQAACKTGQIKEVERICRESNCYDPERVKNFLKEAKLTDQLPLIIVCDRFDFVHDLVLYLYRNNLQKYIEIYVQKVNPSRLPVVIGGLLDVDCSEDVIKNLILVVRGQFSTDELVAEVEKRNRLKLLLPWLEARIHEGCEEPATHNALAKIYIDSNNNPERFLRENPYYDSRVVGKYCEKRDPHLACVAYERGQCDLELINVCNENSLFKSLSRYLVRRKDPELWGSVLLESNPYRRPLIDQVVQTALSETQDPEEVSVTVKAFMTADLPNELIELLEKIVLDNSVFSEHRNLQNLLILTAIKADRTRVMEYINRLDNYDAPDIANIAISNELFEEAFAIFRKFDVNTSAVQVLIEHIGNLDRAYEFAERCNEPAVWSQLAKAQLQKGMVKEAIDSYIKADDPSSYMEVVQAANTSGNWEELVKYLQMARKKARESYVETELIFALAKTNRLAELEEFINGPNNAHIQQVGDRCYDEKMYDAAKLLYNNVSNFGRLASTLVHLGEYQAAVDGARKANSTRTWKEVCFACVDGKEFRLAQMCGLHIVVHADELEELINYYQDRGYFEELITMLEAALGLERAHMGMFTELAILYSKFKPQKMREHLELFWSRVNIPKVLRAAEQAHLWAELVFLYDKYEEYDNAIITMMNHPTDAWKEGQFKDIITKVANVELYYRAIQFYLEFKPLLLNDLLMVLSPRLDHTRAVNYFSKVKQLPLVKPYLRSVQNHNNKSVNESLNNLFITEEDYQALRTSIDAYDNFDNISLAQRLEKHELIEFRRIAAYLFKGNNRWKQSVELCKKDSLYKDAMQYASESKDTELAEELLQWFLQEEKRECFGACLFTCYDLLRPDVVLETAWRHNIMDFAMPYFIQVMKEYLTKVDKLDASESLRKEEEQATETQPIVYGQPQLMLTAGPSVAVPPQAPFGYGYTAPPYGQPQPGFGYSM
UniProt Q9H0U3: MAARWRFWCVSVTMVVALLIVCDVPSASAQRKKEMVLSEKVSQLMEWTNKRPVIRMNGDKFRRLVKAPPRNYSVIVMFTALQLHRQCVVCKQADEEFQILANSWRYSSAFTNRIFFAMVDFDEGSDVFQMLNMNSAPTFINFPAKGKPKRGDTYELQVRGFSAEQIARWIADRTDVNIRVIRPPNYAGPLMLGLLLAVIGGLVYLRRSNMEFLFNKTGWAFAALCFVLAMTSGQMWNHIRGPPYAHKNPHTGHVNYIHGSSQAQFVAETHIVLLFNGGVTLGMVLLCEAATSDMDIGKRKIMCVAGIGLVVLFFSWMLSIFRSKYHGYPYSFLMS
UniProt Q9NZM3: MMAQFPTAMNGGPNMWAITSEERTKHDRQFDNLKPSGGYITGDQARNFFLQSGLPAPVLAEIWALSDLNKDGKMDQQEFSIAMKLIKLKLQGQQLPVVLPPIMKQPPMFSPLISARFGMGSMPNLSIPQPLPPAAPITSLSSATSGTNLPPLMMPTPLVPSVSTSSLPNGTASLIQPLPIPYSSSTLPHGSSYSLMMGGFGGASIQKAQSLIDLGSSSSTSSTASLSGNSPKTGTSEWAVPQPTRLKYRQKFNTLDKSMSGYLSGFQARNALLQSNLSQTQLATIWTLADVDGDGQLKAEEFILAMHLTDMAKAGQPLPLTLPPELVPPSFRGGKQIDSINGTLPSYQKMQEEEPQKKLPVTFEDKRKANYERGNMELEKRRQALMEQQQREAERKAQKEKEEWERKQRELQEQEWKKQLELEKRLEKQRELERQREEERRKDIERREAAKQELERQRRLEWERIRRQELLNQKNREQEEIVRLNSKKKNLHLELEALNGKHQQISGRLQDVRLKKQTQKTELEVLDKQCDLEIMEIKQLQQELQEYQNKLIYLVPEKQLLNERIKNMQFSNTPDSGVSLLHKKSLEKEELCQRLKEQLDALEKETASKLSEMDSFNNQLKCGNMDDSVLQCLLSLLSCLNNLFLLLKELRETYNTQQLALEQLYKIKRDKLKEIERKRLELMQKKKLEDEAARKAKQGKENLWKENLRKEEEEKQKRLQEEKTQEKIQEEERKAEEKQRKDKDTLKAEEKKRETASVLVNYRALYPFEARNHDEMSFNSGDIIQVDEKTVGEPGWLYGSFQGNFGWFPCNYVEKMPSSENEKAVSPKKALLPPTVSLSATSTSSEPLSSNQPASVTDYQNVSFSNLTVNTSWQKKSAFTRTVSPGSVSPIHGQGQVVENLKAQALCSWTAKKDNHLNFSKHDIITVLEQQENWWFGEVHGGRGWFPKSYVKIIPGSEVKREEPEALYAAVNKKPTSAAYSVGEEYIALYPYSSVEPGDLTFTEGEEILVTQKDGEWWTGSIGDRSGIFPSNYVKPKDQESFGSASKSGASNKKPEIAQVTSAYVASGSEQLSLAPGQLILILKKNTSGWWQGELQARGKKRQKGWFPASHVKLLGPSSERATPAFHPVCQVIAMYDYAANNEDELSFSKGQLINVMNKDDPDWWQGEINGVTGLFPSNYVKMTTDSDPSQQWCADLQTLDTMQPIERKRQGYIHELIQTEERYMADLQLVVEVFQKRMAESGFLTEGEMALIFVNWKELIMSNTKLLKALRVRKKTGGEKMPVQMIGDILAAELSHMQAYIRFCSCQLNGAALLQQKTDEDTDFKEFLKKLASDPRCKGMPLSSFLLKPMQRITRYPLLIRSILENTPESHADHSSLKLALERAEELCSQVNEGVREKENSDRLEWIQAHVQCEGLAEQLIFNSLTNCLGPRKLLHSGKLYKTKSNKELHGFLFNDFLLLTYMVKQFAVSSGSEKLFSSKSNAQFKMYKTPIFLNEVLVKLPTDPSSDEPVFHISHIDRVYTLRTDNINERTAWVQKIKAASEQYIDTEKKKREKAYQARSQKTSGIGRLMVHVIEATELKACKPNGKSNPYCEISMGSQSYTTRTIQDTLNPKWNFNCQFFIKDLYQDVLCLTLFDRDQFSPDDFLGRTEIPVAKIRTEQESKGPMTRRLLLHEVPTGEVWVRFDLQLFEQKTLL
UniProt O60841: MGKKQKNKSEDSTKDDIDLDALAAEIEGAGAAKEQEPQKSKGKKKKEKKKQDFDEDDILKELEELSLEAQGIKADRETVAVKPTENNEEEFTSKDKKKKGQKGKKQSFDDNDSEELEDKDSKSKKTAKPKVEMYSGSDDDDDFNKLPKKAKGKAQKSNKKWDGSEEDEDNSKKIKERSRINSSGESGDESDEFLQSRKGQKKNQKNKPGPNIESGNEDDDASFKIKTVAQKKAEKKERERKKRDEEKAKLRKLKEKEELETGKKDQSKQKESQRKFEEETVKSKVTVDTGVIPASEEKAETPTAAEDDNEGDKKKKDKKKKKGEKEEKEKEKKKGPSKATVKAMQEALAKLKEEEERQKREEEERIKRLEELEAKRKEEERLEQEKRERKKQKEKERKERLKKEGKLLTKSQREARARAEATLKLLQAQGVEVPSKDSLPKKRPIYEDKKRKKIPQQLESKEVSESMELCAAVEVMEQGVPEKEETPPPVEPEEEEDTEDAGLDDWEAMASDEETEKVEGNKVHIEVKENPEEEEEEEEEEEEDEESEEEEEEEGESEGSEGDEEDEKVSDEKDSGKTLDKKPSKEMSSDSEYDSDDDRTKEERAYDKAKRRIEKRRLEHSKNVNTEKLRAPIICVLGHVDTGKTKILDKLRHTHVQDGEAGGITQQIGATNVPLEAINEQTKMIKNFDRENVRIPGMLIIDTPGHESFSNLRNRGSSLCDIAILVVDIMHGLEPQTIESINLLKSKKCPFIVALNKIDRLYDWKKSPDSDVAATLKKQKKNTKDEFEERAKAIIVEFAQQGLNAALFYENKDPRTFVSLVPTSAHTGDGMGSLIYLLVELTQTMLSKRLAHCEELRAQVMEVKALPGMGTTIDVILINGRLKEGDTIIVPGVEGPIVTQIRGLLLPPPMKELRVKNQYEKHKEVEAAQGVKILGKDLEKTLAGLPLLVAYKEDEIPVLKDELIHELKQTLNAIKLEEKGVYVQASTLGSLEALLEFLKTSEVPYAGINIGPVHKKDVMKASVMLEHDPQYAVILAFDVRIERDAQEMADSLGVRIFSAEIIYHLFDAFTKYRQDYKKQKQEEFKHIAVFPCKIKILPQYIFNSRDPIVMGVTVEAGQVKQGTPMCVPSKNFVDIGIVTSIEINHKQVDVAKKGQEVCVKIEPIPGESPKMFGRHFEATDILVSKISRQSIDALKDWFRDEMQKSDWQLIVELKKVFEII
UniProt Q99417: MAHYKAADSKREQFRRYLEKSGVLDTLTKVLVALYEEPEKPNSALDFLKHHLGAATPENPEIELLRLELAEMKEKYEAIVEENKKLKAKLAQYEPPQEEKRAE
UniProt P46379: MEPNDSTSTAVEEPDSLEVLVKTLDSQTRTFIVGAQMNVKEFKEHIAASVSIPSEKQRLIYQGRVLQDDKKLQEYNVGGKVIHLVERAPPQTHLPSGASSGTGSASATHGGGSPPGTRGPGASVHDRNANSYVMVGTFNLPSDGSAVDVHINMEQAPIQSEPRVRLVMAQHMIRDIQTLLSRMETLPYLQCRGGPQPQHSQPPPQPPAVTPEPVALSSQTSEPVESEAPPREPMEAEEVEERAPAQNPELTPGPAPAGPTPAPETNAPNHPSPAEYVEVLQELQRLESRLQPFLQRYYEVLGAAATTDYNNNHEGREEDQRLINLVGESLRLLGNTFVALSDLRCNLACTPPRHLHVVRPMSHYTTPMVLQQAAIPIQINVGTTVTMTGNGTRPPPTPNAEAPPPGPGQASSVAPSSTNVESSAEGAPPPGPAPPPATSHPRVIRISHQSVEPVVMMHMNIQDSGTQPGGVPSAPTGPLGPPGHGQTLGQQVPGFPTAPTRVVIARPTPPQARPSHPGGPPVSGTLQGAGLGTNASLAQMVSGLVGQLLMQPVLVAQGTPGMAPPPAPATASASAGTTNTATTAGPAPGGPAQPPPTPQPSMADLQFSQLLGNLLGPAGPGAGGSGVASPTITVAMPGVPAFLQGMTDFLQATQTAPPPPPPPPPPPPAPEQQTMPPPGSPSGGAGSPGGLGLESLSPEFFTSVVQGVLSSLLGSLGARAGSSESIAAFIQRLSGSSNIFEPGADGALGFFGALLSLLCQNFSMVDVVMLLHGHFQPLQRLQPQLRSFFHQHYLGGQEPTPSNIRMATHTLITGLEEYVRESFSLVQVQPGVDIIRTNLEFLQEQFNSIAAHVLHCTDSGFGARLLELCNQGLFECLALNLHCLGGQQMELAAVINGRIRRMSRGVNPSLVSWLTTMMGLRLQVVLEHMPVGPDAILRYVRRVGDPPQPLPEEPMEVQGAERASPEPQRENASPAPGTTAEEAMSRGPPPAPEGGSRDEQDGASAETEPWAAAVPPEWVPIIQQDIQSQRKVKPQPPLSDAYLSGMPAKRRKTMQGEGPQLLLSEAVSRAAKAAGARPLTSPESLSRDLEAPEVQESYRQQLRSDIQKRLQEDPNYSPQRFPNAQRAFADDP

These targets were tested with Nc1ncnc2c1ncn2[C@@H]1O[C@H](COP(=O)(O)OP(=O)(O)NP(=O)(O)O)[C@@H](O)[C@H]1O [adenylyl imidodiphosphate] (assay: NP40-soluble protein abundance relative to vehicle (solubility fold change) (ratio); higher = more soluble protein in presence of AMP-PNP). Conditions: concentration: 2mM.
In short: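 Values are fold changes against the detergent-processed vehicle, based on vsn-normalised intensities. Jurkat crude lysate was treated at eight concentrations from 0.1 to 10 mM (10 min at room temperature, then 3 min at 37 °C), solubilised with 0.8% NP40 and benzonase, ultracentrifuged and analysed by TMT-labelled LC-MS/MS over three independent experiments.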

Target	NP40-soluble protein abundance
A0A087WVS8|Q70IA6 and related entries (UniProt Q70IA6)	0.925 ± 0.11
A0A087WTX2|Q92504 (UniProt Q92504)	0.9574 ± 0.0066
A0A087WVA8|Q8IWB9 and related entries (UniProt Q8IWB9)	1.01 ± 0.058
A0A087WV73|P46087 and related entries (UniProt P46087)	1.12 ± 0.068
A0A087WT30|Q8N5I9 (UniProt Q8N5I9)	1.25 ± 0.072
A0A087WV23|Q5T123 and related entries (UniProt Q9H299)	1.01 ± 0.06
A0A075B6T4|Q9NVX7 and related entries (UniProt Q9NVX7)	1.03 ± 0.041
A0A075B716|H0YN88 and related entries (UniProt P08708)	1.01 ± 0.071
A0A087WUD1|Q6DD87 (UniProt Q6DD87)	0.986 ± 0.029
A0A087WUS0|E7ETK0 and related entries (UniProt P62847)	0.965 ± 0.061
A0A087WTU3|Q9Y6I9 (UniProt Q9Y6I9)	1.02 ± 0.034
A0A087WUW9|Q9NXU5 (UniProt Q9NXU5)	1.013 ± 0.0089
A0A087WU02|F8VPA6 and related entries (UniProt Q96RQ1)	0.957 ± 0.044
A0A024R7E8|K7EMV4 and related entries (UniProt P60002)	1.14 ± 0.044
A0A087WVQ6|Q00610 and related entries (UniProt Q00610)	0.831 ± 0.094
A0A087WUZ9|Q16760 and related entries (UniProt Q16760)	1.01 ± 0.026
A0A087WU64|A6NMQ1 and related entries (UniProt P09884)	0.948 ± 0.038

Target	NP40-soluble protein abundance
A0A087WU53|Q9H0U3 (UniProt Q9H0U3)	0.8894 ± 0.0073
A0A024RAC6 (UniProt Q14241)	1.13 ± 0.076
A0A087WVF7|Q9NZM3 and related entries (UniProt Q9NZM3)	1.09 ± 0.056
A0A075B738|P16284 and related entries (UniProt P16284)	1.08 ± 0.095
A0A087WUP3|F8WBY6 and related entries (UniProt Q8N3Z3)	0.968 ± 0.016
A0A087WUX8|A0A087WYF7|Q6UXV4 (UniProt Q6UXV4)	1.08 ± 0.052
A0A087WU65|Q9NRW7 (UniProt Q9NRW7)	0.916 ± 0.068
A0A087WT20|Q9NV06 (UniProt Q9NV06)	0.995 ± 0.017
A0A087WUL2|P49720 (UniProt P49720)	0.806 ± 0.034
A0A087WTU9|A0A087WZY3|Q8TCU4 and related entries (UniProt Q8TCU4)	1.01 ± 0.084
A0A024QZP7|P06493 (UniProt P06493)	0.946 ± 0.06
A0A087WV86|B5LMG6 and related entries (UniProt Q6PGQ7+B5LMG6)	1.036 ± 0.0083
A0A087WUT6|O60841 (UniProt O60841)	1.02 ± 0.018
A0A087WV05|Q99417 (UniProt Q99417)	1.04 ± 0.086
A0A087WUU7|Q96GX5 and related entries (UniProt Q96GX5)	1.07 ± 0.036
A0A024RCR6|A0A0G2JK23|P46379 and related entries (UniProt P46379)	1.02 ± 0.06

Copied from the list.
A0A024RAC6 (UniProt Q14241) – NP40-soluble protein abundance: 1.13 ± 0.076
A0A087WUT6|O60841 (UniProt O60841) – NP40-soluble protein abundance: 1.02 ± 0.018
